Laboratory results: PubChem BioAssay AID1259254 (NCATS, 2017)

Purpose: 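Genome-wide screen for genes that prevent DNA re-replication in cancer cells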 (primary screen)
Cells: human HCT116 colorectal cancer cells
Reagent: single siRNA against human genes
Timing: 3 days
Detection: 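Imaged Hoechst DNA stain sorts each cell into a cycle phase by DNA amount; per plate, G2 fraction set to 0% for non-targeting and 100% for GMNN siRNA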
Scale: G2 robust z-score and G2 cells, % of GMNN control: higher = more G2 cells, more excess DNA replication
Active means: 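Active siRNAs have a G2 robust z of 5 or more median absolute deviations over the median, which in these data means about 38% or higher of GMNN control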
This is one part, drawn at random, of about 59,000 reagents tested. About 1,550 of all reagents (2.6%) were called active. 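G2 share is only a proxy for re-replication; each gene was hit by three separate siRNAs, and active genes were retested.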 Unmarked entries are inactive. Reagents against one gene are numbered here. Not all columns of the deposit are shown. Not stated in the record: the amount of reagent.

gene symbol	reagent no.	G2 robust z-score	G2 cells, % of GMNN control
CLOCK (clock circadian regulator)	1	-0.329	0.651
CLOCK (clock circadian regulator)	2	-0.681	-1.83
CLOCK (clock circadian regulator)	3	0.704	7.92
MTTP (microsomal triglyceride transfer protein)	1	-1.23	-5.68
MTTP (microsomal triglyceride transfer protein)	2	-1.41	-6.99
MTTP (microsomal triglyceride transfer protein)	3	-0.585	-1.15
STARD6 (StAR related lipid transfer domain containing 6)	1	-0.829	-2.86
STARD6 (StAR related lipid transfer domain containing 6)	2	-0.162	1.82
STARD6 (StAR related lipid transfer domain containing 6)	3	-0.584	-1.14
GAPDHS (glyceraldehyde-3-phosphate dehydrogenase, spermatogenic)	1	1.03	10.2
GAPDHS (glyceraldehyde-3-phosphate dehydrogenase, spermatogenic)	2	-1.5	-7.62
GAPDHS (glyceraldehyde-3-phosphate dehydrogenase, spermatogenic)	3	1.14	11

Continued; the last 3 above are carried over.
gene symbol	reagent no.	G2 robust z-score	G2 cells, % of GMNN control
GAPDHS (glyceraldehyde-3-phosphate dehydrogenase, spermatogenic)	1	1.03	10.2
GAPDHS (glyceraldehyde-3-phosphate dehydrogenase, spermatogenic)	2	-1.5	-7.62
GAPDHS (glyceraldehyde-3-phosphate dehydrogenase, spermatogenic)	3	1.14	11
KRTAP5-10 (keratin associated protein 5-10)	1	2.56	21
KRTAP5-10 (keratin associated protein 5-10)	2	1.86	16.1
KRTAP5-10 (keratin associated protein 5-10)	3	1.18	11.3
ZNF644 (zinc finger protein 644)	1	5.61 (active)	42.4
ZNF644 (zinc finger protein 644)	2	-0.202	1.55
ZNF644 (zinc finger protein 644)	3	-0.491	-0.486
DAPK1 (death associated protein kinase 1)	1	-0.44	-0.129
DAPK1 (death associated protein kinase 1)	2	1.66	14.7
DAPK1 (death associated protein kinase 1)	3	-0.717	-2.08
C12orf57 (chromosome 12 open reading frame 57)	1	0.274	4.9
C12orf57 (chromosome 12 open reading frame 57)	2	2.12	17.9
C12orf57 (chromosome 12 open reading frame 57)	3	0.00884	3.03
HPRT1 (hypoxanthine phosphoribosyltransferase 1)	1	1.53	13.7
HPRT1 (hypoxanthine phosphoribosyltransferase 1)	2	-0.386	0.255
HPRT1 (hypoxanthine phosphoribosyltransferase 1)	3	-0.464	-0.298
LRRIQ4 (leucine rich repeats and IQ motif containing 4)	1	0.633	7.42
LRRIQ4 (leucine rich repeats and IQ motif containing 4)	2	4.06	31.5
LRRIQ4 (leucine rich repeats and IQ motif containing 4)	3	-0.83	-2.87
